# Data taken from the supplement of paper PMC6411743.
# The chains behind the UniProt entries cited, without tags or fusion partners. Where a name states a change or a piece, a line headed by the entry shows the natural chain unless it says otherwise.
# UniProt O14949: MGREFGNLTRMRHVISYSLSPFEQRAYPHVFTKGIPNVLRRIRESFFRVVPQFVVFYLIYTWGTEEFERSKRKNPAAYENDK
# UniProt O43252: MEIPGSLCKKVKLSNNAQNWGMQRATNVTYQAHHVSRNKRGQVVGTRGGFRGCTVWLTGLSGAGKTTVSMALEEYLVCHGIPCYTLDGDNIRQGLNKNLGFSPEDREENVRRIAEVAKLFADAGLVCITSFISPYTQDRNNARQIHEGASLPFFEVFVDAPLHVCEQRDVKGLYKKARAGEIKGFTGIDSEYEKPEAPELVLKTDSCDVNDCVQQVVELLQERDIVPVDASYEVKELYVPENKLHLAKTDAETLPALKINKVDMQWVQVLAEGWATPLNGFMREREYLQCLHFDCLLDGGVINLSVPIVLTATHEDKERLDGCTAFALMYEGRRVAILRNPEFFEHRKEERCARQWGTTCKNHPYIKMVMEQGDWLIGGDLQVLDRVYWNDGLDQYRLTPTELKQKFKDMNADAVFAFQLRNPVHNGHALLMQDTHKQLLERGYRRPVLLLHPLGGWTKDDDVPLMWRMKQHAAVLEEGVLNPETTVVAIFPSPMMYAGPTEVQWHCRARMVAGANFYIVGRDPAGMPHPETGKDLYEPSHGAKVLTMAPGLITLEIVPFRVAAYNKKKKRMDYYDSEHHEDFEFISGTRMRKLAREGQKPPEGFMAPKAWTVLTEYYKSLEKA
# UniProt O43633: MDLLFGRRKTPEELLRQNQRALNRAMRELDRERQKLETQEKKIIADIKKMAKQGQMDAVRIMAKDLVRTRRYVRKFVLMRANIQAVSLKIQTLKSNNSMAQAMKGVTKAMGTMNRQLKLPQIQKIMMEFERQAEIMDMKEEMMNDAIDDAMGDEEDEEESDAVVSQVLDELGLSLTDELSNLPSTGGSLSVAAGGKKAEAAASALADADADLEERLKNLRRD
# UniProt O14646: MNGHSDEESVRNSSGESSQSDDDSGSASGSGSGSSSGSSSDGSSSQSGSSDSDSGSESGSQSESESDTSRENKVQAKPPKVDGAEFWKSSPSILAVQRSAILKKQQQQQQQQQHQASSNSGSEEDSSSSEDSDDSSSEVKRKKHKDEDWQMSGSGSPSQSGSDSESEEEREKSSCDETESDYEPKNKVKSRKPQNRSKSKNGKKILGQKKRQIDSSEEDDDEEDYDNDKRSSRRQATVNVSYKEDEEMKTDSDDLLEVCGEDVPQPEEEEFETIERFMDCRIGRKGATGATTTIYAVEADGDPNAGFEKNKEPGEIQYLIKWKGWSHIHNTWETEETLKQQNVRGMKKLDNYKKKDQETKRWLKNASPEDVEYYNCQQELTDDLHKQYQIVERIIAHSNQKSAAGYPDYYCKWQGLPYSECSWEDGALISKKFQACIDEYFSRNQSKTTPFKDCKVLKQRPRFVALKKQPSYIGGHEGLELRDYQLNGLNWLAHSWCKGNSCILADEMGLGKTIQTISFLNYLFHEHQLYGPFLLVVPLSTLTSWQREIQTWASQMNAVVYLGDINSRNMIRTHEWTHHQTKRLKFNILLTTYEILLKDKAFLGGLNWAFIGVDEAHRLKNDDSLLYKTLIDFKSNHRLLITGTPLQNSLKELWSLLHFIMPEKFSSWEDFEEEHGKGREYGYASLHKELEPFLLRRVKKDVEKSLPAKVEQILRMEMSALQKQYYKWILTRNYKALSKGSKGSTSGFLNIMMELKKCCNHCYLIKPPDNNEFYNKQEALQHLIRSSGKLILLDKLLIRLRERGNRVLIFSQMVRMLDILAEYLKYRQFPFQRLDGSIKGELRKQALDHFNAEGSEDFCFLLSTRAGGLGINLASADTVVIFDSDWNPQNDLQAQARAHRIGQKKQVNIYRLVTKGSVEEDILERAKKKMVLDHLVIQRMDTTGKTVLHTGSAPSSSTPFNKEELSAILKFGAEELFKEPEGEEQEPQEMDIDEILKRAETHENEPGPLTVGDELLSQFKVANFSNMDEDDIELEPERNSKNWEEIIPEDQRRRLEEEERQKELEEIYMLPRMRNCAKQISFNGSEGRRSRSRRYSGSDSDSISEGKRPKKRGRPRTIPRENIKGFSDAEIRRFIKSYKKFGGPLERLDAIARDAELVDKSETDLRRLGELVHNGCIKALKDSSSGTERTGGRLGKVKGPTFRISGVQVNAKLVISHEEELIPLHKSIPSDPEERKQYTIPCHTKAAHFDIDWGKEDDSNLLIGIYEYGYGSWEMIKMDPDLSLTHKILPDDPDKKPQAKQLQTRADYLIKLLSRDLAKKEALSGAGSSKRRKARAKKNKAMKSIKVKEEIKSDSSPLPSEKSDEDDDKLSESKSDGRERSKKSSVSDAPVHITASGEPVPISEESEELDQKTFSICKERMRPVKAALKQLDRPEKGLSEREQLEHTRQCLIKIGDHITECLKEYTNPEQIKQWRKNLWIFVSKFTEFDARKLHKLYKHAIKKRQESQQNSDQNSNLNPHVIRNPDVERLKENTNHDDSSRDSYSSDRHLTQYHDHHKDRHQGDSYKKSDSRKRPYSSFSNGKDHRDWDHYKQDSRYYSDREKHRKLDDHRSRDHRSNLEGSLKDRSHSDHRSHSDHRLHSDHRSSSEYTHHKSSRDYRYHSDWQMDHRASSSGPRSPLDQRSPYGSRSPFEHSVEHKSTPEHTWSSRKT
# UniProt O14735: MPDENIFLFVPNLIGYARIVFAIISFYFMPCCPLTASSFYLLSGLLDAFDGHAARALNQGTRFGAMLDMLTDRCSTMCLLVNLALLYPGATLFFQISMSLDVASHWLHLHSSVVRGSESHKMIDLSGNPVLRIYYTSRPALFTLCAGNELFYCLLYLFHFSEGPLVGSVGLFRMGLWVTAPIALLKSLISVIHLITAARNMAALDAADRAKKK
# UniProt O14907: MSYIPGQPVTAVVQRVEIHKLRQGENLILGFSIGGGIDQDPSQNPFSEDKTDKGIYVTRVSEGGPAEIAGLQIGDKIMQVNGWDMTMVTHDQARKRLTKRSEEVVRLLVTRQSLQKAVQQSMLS
# UniProt O15067: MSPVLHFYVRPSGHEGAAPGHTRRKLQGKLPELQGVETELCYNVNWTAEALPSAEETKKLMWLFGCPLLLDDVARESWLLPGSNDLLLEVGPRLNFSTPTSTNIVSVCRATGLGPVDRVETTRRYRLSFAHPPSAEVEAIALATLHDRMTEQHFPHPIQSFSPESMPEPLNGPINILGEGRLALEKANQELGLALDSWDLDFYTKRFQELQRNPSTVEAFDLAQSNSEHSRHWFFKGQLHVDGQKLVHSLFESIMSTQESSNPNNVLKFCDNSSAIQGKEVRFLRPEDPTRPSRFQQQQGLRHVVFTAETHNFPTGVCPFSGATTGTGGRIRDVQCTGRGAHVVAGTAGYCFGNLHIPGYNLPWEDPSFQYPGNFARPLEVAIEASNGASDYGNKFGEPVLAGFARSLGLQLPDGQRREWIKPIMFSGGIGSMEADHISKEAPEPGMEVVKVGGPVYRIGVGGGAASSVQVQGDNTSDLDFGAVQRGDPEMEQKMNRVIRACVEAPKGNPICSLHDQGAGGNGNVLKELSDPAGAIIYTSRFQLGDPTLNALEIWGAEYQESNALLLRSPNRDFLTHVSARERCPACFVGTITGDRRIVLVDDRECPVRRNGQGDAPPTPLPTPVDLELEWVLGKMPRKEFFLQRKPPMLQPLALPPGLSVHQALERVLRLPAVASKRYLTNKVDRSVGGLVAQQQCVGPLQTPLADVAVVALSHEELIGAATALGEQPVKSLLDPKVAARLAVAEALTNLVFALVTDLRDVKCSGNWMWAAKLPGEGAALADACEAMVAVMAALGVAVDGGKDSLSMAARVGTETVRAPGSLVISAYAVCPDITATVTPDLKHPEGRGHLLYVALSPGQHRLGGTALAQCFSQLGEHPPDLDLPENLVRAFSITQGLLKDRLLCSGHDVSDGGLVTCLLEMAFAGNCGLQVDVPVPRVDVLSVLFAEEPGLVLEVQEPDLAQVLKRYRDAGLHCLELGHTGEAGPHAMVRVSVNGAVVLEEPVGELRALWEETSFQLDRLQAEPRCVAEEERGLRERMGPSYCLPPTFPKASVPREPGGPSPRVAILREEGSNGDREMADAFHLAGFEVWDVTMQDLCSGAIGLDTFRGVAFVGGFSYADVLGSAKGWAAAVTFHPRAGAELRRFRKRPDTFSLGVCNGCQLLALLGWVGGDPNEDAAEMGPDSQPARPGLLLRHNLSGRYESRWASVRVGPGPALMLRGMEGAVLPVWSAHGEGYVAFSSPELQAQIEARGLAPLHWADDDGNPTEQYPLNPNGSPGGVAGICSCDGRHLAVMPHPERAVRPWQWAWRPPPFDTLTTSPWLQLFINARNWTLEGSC
# UniProt O14925: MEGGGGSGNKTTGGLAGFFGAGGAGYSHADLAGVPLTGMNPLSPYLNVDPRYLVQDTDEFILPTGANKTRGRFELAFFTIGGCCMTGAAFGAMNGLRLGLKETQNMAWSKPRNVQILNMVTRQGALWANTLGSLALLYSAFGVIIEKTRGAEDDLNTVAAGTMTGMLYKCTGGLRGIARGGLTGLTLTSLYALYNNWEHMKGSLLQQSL
# UniProt Q5SRD1: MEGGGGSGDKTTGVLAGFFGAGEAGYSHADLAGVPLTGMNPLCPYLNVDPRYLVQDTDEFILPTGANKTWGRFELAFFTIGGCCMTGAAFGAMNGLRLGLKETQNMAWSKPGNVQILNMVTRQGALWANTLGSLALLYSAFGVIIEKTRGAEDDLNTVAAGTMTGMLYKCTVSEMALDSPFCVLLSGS
# UniProt O43665: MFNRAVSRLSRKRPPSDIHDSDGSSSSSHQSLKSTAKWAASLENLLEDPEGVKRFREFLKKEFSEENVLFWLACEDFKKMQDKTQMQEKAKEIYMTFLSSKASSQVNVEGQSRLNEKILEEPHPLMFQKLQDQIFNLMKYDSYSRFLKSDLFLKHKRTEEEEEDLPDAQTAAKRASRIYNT
# UniProt O15391, whole entry: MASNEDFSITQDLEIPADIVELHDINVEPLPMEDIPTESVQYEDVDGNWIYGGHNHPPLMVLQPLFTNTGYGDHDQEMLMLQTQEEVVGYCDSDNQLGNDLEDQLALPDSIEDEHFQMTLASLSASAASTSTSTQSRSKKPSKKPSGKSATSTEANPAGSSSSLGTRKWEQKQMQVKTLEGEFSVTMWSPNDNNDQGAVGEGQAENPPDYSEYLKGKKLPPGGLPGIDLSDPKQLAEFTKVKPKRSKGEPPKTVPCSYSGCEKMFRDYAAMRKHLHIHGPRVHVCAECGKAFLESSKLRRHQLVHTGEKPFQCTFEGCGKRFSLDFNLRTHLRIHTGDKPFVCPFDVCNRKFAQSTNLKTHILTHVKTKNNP
# UniProt O14639: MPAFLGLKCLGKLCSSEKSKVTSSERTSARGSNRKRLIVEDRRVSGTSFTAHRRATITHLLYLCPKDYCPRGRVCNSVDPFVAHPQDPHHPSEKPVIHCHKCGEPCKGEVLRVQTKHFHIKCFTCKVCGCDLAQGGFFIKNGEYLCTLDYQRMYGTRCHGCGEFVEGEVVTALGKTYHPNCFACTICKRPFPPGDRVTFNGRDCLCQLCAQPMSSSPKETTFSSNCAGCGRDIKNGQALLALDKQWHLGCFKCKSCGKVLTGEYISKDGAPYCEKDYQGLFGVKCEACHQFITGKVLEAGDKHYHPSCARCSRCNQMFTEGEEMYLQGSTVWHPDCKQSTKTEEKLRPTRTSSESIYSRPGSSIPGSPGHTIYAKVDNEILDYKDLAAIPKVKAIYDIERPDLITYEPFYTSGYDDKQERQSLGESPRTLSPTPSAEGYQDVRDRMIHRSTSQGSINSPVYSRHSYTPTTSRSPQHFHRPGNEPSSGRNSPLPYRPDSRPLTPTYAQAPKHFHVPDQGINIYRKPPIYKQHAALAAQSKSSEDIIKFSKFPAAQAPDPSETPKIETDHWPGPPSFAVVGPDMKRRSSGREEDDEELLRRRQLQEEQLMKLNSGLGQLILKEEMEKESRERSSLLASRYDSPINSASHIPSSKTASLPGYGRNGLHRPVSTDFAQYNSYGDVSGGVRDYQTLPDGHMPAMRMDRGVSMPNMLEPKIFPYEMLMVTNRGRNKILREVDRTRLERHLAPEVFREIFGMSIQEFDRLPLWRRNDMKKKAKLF
# UniProt O00264: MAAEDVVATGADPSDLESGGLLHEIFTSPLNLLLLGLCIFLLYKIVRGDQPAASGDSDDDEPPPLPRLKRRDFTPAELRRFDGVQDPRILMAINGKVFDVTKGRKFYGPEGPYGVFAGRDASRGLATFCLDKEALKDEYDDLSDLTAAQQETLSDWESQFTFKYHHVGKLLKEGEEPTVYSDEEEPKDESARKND
# UniProt O43819: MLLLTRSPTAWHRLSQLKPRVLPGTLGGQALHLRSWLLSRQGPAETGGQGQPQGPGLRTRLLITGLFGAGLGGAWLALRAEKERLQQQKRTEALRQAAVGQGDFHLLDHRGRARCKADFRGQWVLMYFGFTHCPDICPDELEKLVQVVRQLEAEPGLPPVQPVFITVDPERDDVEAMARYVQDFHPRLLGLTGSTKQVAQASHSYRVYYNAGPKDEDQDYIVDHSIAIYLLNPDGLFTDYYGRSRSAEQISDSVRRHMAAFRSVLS
# ± gives the standard deviation of the averaged measurements. This is a selection; strong and weak results do not stand in their true shares.
# Compound: Nc1ncnc2c1ncn2[C@@H]1O[C@H](COP(=O)(O)OP(=O)(O)NP(=O)(O)O)[C@@H](O)[C@H]1O [adenylyl imidodiphosphate]
# Experiment: NP40-soluble protein abundance relative to vehicle (solubility fold change) (ratio); higher = more soluble protein in presence of AMP-PNP
# Details: concentration: 1mM
# Method in brief: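 Jurkat crude lysate (Dounce-homogenised) was treated with eight concentrations from 0.1 to 10 mM for 10 min at room temperature, then 3 min at 37 °C. It was solubilised with 0.8% NP40 and benzonase (60 min, 4 °C) and ultracentrifuged, and the supernatant was TMT-labelled for LC-MS/MS. Intensities were vsn-normalised, and the value is the fold change against the NP40-processed vehicle per replicate, from three independent experiments.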
row,Target,NP40-soluble protein abundance
1,GTPBP1 (UniProt O00178),1.03 ± 0.031
2,PIK3C2A (UniProt O00443),1 ± 0.017
3,UQCRQ (UniProt O14949),0.928 ± 0.078
4,ARPC2 (UniProt O15144),0.974 ± 0.033
5,XPO1 (UniProt O14980),0.966 ± 0.036
6,PAPSS1 (UniProt O43252),1.01 ± 0.029
7,RRP9 (UniProt O43818),1.031 ± 0.01
8,CHMP2A (UniProt O43633),0.949 ± 0.013
9,BCAT2 (UniProt O15382),0.984 ± 0.033
10,M0QYS1 and related entries (UniProt P40429),1.01 ± 0.071
11,K7EPA3 and related entries (UniProt Q9NX61),0.981 ± 0.025
12,K7ENL9 and related entries (UniProt Q96DM3),0.952 ± 0.013
13,UniProt O14646 and related entries,1.07 ± 0.052
14,UniProt O15020 and related entries,1.02 ± 0.019
15,ZZEF1 (UniProt O43149),0.974 ± 0.059
16,CDIPT (UniProt O14735),0.928 ± 0.062
17,TAX1BP3 (UniProt O14907),1.05 ± 0.015
18,HNRNPR (UniProt O43390),1.02 ± 0.11

row,Target,NP40-soluble protein abundance
1,M0R2B7 and related entries (UniProt P28340),0.9433 ± 0.0024
2,DHX15 (UniProt O43143),1.1 ± 0.034
3,UniProt O43156,0.989 ± 0.038
4,K7ESQ0 and related entries (UniProt Q9H6Z4),0.9985 ± 0.0052
5,CLIC1 (UniProt O00299),1.01 ± 0.015
6,PLRG1 (UniProt O43660),1.07 ± 0.03
7,M0QZR4 (UniProt Q92888),1.011 ± 0.0025
8,UniProt O43829,1.04 ± 0.018
9,PFAS (UniProt O15067),0.99 ± 0.013
10,HTATSF1 (UniProt O43719),1.03 ± 0.026
11,O14925 and related entries (UniProt Q5SRD1+O14925),1.01 ± 0.035
12,UniProt O43665 and related entries,0.9422 ± 0.0088
13,UniProt O15391,1.1 ± 0.025
14,M0R208 and related entries (UniProt Q16740),1.04 ± 0.02
15,UniProt O14639 and related entries,1.02 ± 0.024
16,PGRMC1 (UniProt O00264),0.945 ± 0.048
17,SCO2 (UniProt O43819),0.972 ± 0.0067

# Same assay, conditions: concentration: 2mM
row,Target,NP40-soluble protein abundance
1,GTPBP1 (UniProt O00178),1.03 ± 0.028
2,PIK3C2A (UniProt O00443),1.03 ± 0.022
3,UQCRQ (UniProt O14949),0.99 ± 0.017
4,ARPC2 (UniProt O15144),0.896 ± 0.11
5,XPO1 (UniProt O14980),0.935 ± 0.01
6,PAPSS1 (UniProt O43252),0.94 ± 0.071
7,RRP9 (UniProt O43818),1.04 ± 0.019
8,CHMP2A (UniProt O43633),1.02 ± 0.094
9,BCAT2 (UniProt O15382),0.903 ± 0.098
10,M0QYS1 and related entries (UniProt P40429),1 ± 0.023
11,K7EPA3 and related entries (UniProt Q9NX61),0.931 ± 0.069
12,K7ENL9 and related entries (UniProt Q96DM3),0.926 ± 0.08
13,UniProt O14646 and related entries,1.15 ± 0.023
14,UniProt O15020 and related entries,1.04 ± 0.046
15,ZZEF1 (UniProt O43149),0.978 ± 0.057
16,CDIPT (UniProt O14735),0.896 ± 0.042
17,TAX1BP3 (UniProt O14907),1.05 ± 0.049
18,HNRNPR (UniProt O43390),0.971 ± 0.15

row,Target,NP40-soluble protein abundance
1,M0R2B7 and related entries (UniProt P28340),0.859 ± 0.1
2,DHX15 (UniProt O43143),1.06 ± 0.079
3,UniProt O43156,0.956 ± 0.076
4,K7ESQ0 and related entries (UniProt Q9H6Z4),1.04 ± 0.057
5,CLIC1 (UniProt O00299),1.05 ± 0.099
6,PLRG1 (UniProt O43660),1.1 ± 0.031
7,M0QZR4 (UniProt Q92888),1.03 ± 0.02
8,UniProt O43829,1.08 ± 0.035
9,PFAS (UniProt O15067),0.948 ± 0.063
10,HTATSF1 (UniProt O43719),1.06 ± 0.061
11,O14925 and related entries (UniProt Q5SRD1+O14925),0.997 ± 0.011
12,UniProt O43665 and related entries,0.977 ± 0.047
13,UniProt O15391,1.1 ± 0.018
14,M0R208 and related entries (UniProt Q16740),1.09 ± 0.057
15,UniProt O14639 and related entries,1.06 ± 0.037
16,PGRMC1 (UniProt O00264),1 ± 0.017
17,SCO2 (UniProt O43819),0.949 ± 0.054
